± gives the standard deviation of the averaged measurements. Most values lie at the floor of the assay. Slopes are relative: functional sequences can read slightly below zero.
test system: Saccharomyces cerevisiae PS128 hsf1 delta, HSF1(1-493) fusion; assay: growth estimate (transactivation domain function in HSF1 fusion, heat-shock survival) (a.u. (slope of normalised read count over time)); higher = stronger growth at 37°C, i.e. more transactivation activity; settings: library: random library

Row | Substance | growth estimate
1 | SDRMAGFRQVWSRHLVLSGV | < -0.25
2 | VAVAH | < -0.25
3 | SKNENPYESSVHPGFTPRRL | < -0.25
4 | QTTSRL | < -0.25
5 | AQQ | < -0.25
6 | VRYSVAKRLRRPIGKHSA | < -0.25
7 | ALKKRGEYAVVINDLRQLQP | < -0.25
8 | FPVTFSVDQRRKHWLTQLMQ | < -0.25
9 | ADSGACHLPPKQVEALAGHK | < -0.25
10 | HVRVLD | < -0.25
11 | LFDVWG | < -0.25
12 | WYRREAEEGTVCMNGYLTEG | < -0.25
13 | DRACLVRGHCPVNIRLGAVS | < -0.25
14 | CSYLRPVGLRPETHVRVQIS | < -0.25
15 | RYKLKNWVTWHAQDSPRGSR | < -0.25
16 | CGKKNPGRSFSVALGVPGRA | < -0.25
17 | MLRGIHKKLFSV | < -0.25
18 | HVVPLIALESCGSSNPSSKY | < -0.25
19 | FLCIGLWRPV | < -0.25
20 | RACCCN | < -0.25
21 | KSQGQAYIR | < -0.25
22 | LRGQARLRASPSYSHSVARP | < -0.25
23 | RSFALDK | < -0.25

Row | Substance | growth estimate
24 | GNPSIPHGVSVAARFELNAV | < -0.25
25 | GCTTIEVEL | < -0.25
26 | RNWCISRLGRAWISRKHM | < -0.25
27 | CRVL | < -0.25
28 | VTGV | < -0.25
29 | DFPIARDSECIRFAFCFSVC | < -0.25
30 | VFL | < -0.25
31 | HASVWGS | < -0.25
32 | ALVTCHEGY | < -0.25
33 | QDDARRGR | < -0.25
34 | RLELTGVHGIKMHGSNVVGW | < -0.25
35 | INGFYEPLRELIWEF | 0.124
36 | GHRLISYWETST | < -0.25
37 | IRNTGRLNDTMQLRSRVGPP | < -0.25
38 | PLNIEAMFSLWVSGDGPAHV | < -0.25
39 | VEV | -0.242 ± 0.011
40 | SCAIITTWLWLSSSRDAVGR | < -0.251
41 | RLIQ | < -0.25
42 | QIRQFAGFSLSDYLTSF | < -0.25
43 | RSGLRPLCT | < -0.25
44 | VWLLYYYPHGEWGCDGRTAA | < -0.25
45 | DGAKRTELIPSPLEPIGCHP | < -0.25
46 | YRPCIDFIHRQTFVAQPAQR | < -0.25

Row | Substance | growth estimate
47 | WRHERAVRYRFQVWVPYLSR | < -0.25
48 | RRCV | < -0.25
49 | LGLSFYG | < -0.25
50 | RVTSLALYLGEFIAHWLTSG | < -0.25
51 | ASGSLYK | < -0.25
52 | GRRLN | < -0.25
53 | QPESLYPFPDGVNGHVSA | < -0.25
54 | LGVVMSPAMRSPGGCGYLPK | < -0.25
55 | IPQEYNLHSYVFWL | < -0.25
56 | HQARTRGLTNYGTKLHCVAG | < -0.25
57 | RKRTRSRHTTTGRSNGTQGR | < -0.25
58 | CWPPASGVIDGFFSKVIFVG | < -0.25
59 | WISSIRHGRVGNFDITQRPL | < -0.25
60 | NDKAYACSSAHRVVFTVEPP | < -0.25
61 | VFLTSVTLLPVAQGPQV | < -0.25
62 | ATVEE | < -0.25
63 | YMCVH | < -0.25
64 | IQVPRVEKERLFCISTTEIQ | < -0.25
65 | RLTRSRIRVGCVTVK | -0.231
66 | VHYAFLRGSFRGNYNWMHKI | < -0.25
67 | SDPKS | < -0.25
68 | QHIIRTRLTWGTRSLALNPL | < -0.25
69 | SWSYVVLRTLGKK | < -0.25

Row | Substance | growth estimate
70 | QHR | < -0.25
71 | TKWLP | < -0.25
72 | RQTQVKDTRCVLYHRH | < -0.25
73 | HESSRPRHFVFQVYLHLKAF | < -0.25
74 | LEHICQPTAGRKVNPLYEGT | < -0.25
75 | HLSRGQH | < -0.25
76 | SLAIILLS | < -0.25
77 | SDTLAQRCPSPDRMRQRPSA | < -0.25
78 | PAIPNRGYTVSGRGHTRVLA | < -0.25
79 | LQASLRVYGLCWPHNAFATG | < -0.25
80 | RQEMAFITPS | < -0.25
81 | PFTTTKAVPHACHLGHQTPY | -0.243
82 | QFLSIH | < -0.25
83 | RRKSG | < -0.25
84 | GSSDSFLPVFKRGWASKIAL | < -0.25
85 | TVQAGRRAVFR | < -0.25
86 | GRTLACVLL | < -0.25
87 | DVLA | < -0.25
88 | LAAYRGGLLSSDHSTRQSIF | < -0.25
89 | FVKNSLAPVR | < -0.25
90 | KVEYLHRRLHA | < -0.25
91 | NGVKEVLASVE | < -0.25
92 | QYSV | -0.245

Row | Substance | growth estimate
93 | RERFQVMG | < -0.25
94 | TSREYKRVLGRPSKQQAVIM | < -0.25
95 | LESAELGMGGLSR | < -0.25
96 | VKGNAPQALVESVWYAVRKV | < -0.25
97 | PSTGNIAPALLWLQR | < -0.25
98 | GTYCCRIDLACDESRRTG | < -0.25
99 | SSTMCCFFWWHTLCVVARID | < -0.25
100 | TGLRLQGPVRCR | < -0.25
101 | IHRQPRTC | < -0.25
102 | INLRVSCVMIGCRSDSP | < -0.25
103 | SRFR | < -0.25
104 | NCELADFETTDRIQQLLSI | < -0.25
105 | DREIA | -0.246
106 | MHCGDTQPLGLATK | < -0.25
107 | LLGKCYL | < -0.25
108 | DLNTSALVWKAL | < -0.25
109 | FGPLSKRVHCFVGNGASYRG | < -0.25
110 | VLFCWSSKANNRWDVVVSHS | < -0.25
111 | SDIGVG | < -0.25
112 | QHRSPWPGVG | < -0.25
113 | LWYTAELR | < -0.25
114 | PSAV | < -0.25
115 | HTTGVRQSTNFGPWDARRVD | < -0.25

Row | Substance | growth estimate
116 | RFSG | < -0.25
117 | ISGN | < -0.25
118 | VRLSPVTPRSRMASKAMLWH | < -0.25
119 | GLGMSAFSLGHGLYAGGFSA | < -0.25
120 | LLLMNFKAI | < -0.25
121 | VRVCLSEIRRIFSDTHTWQG | < -0.25
122 | EYPCAGRSAMILAQS | < -0.25
123 | YAESRSAGSP | < -0.25
124 | VYIEEPPLLASQAGARDLGF | < -0.25
125 | GQATHRRSD | < -0.25
126 | NQAPS | < -0.25
127 | CPSFAPTKSAGWL | < -0.25
128 | VMQKGACWRPASRFSAKIRT | < -0.25
129 | SISRGFSAITLLNRRPARTR | < -0.25
130 | YTLVLRHRRSLRTVPVLPPI | < -0.25
131 | TQTRWSTARPVRHK | < -0.25
132 | TTTV | < -0.25
133 | GAVSRLTGKPRCESGSEEAH | < -0.25
134 | GRAGFDR | < -0.25
135 | LWVRSFSYFKRGRGSDWNAR | < -0.25
136 | AQWYPPRDHSWTPTGLGSPD | < -0.25
137 | RGYSGASSRWGYGPRVALVI | < -0.25
138 | EHDWVPGNIRSLPQIILQTM | < -0.25

Single values from the results shown.
Under growth estimate, NQAPS shows < -0.25
Under growth estimate, CPSFAPTKSAGWL shows < -0.25
Under growth estimate, GRAGFDR shows < -0.25
Under growth estimate, RFSG shows < -0.25
Under growth estimate, ISGN shows < -0.25

Next entries.

Row | Substance | growth estimate
139 | GAGSECLRQPRTTDGISESV | < -0.25
140 | LRKNCCPSDLASSRA | < -0.25
141 | NKGPLIHQISYEHSRLSMAR | < -0.25
142 | IGVIAVVAGCWERLP | < -0.25
143 | RKAVAHMSVRHSGAE | < -0.25
144 | TRSAVFP | < -0.25
145 | VRLSTICFCHQ | -0.248
146 | RRLSKCNLY | < -0.25
147 | RELSSMGSGAVEIAHSFGQH | < -0.25
148 | ARVVESRTEYVAFYFAFSLA | < -0.25
149 | LHSNVSNQIRDIVIGRTPRR | < -0.25
150 | KGRGSLSPSAQLRLLLLATR | < -0.25
151 | NFCLCQCLEHCERFR | < -0.25
152 | VVSRHGKCVISVAK | < -0.25
153 | HRGVRTPGGVPGLRLDATLS | < -0.25
154 | GGCLVAGSSYISSASNHGRT | < -0.25
155 | WVTSLDHAWQLLRRAFAWLF | < -0.25
156 | CYNGCSGLLHNWPNRSRAFV | < -0.25
157 | KSVLGTPIVLHR | < -0.25
158 | ESCPCG | < -0.25
159 | VKQE | < -0.25
160 | VSVRCHGSDS | -0.0061
161 | GLSVGGVLIR | < -0.25

Reference: the supplement of paper PMC5949888
